These are yes or no findings as the source states them, for the method shown. In cells and extracts the contact can be indirect. Some results given as binding are weak or reduced against the parent protein; the word gives no strength.
How the values were obtained:
[1] = molecular target: T1, Kir6.1, pore-forming subunit of the K-ATP channel (endogenous, mouse BMDMs) (mouse (endogenous in BMDMs)) (UniProt P97794); experiment: co-IP; endogenous proteins in lysates of BMDMs from WT and Kir6.1 KO mice (ATP-stimulated cells among them); 2 ug of antibodies (ASC, NLRP3 or Kir6.1) overnight at 4 °C, then protein A/G plus agarose beads 2-4 h; lysis buffer 50 mM Tris-HCl pH 7.4, 1% NP-40, 150 mM NaCl; detection by immunoblotting
T1 sequence: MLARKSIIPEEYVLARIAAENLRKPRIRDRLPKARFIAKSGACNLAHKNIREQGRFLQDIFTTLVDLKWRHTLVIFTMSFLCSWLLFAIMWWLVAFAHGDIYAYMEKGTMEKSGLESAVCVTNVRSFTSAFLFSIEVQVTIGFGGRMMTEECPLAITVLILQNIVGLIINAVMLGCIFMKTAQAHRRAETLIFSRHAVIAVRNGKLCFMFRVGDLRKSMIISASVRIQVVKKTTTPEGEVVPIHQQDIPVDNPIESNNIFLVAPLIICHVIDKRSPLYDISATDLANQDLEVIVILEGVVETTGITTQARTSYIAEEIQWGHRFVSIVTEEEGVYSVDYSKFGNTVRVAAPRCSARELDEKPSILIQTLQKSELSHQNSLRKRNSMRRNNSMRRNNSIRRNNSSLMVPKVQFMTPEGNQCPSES

By UniProt entry, the sequences of proteins in these tests, tags left out.
UniProt Q8R4B8: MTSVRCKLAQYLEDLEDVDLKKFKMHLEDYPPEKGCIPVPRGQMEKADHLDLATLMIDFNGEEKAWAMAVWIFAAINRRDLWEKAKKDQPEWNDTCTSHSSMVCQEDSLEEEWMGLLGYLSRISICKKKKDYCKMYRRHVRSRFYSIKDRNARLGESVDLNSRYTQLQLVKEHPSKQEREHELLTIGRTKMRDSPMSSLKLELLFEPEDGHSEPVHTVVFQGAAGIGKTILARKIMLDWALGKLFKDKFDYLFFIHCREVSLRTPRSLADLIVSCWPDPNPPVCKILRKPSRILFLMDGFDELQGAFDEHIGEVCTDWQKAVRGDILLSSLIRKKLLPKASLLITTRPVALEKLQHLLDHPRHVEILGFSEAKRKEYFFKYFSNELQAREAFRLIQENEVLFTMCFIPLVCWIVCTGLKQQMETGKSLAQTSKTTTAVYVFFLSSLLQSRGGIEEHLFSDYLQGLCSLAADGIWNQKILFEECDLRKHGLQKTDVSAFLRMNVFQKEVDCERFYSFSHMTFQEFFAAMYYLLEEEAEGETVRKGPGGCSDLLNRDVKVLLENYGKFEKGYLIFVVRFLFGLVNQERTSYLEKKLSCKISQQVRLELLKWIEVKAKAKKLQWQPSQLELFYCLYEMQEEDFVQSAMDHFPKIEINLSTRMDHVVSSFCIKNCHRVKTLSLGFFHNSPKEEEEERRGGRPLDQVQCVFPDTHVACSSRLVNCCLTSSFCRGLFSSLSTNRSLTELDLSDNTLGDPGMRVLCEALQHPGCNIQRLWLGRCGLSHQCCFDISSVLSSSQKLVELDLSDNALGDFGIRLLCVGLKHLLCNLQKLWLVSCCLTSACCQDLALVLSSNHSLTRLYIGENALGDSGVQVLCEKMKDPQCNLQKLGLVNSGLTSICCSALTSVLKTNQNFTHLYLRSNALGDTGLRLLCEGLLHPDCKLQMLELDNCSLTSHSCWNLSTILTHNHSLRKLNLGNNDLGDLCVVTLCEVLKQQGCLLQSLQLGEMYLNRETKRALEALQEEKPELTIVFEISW

[2] = molecular target: T2, ASC, adaptor apoptotic speck protein containing a caspase recruitment domain (endogenous, mouse BMDMs) (mouse (endogenous in BMDMs)) (UniProt Q9EPB4); experiment: as above
T2 sequence: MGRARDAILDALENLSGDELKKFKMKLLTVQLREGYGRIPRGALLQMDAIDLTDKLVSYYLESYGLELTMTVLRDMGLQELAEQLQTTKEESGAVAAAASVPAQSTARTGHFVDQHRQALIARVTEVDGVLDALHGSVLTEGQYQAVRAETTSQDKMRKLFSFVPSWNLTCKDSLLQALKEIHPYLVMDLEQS

[3] = molecular target: NLRP3 (NOD-like receptor family, pyrin domain-containing 3; endogenous, mouse BMDMs) (mouse (endogenous in BMDMs)) (UniProt Q8R4B8); experiment: as above
[4] = molecular target: N-terminally FLAG-tagged mouse NLRP3 expressed from pcDNA3 in HEK293T cells (mouse) (UniProt Q8R4B8); experiment: co-IP; HEK293T cells cotransfected with N-terminally FLAG-tagged mouse NLRP3 and mouse Kir6.1 for 48 h; lysates (50 mM Tris-HCl pH 7.4, 1% NP-40, 150 mM NaCl) incubated with anti-FLAG M2 magnetic beads overnight at 4 °C; detection by immunoblotting

NLRP3 (NOD-like receptor family, pyrin domain-containing 3; endogenous, mouse BMDMs) (from UniProt Q8R4B8 1-1033)
binding [1]: binds

B1: procaspase-1 (endogenous, mouse BMDMs) (protein, UniProt P29452 1-402)
chain: MADKILRAKRKQFINSVSIGTINGLLDELLEKRVLNQEEMDKIKLANITAMDKARDLCDHVSKKGPQASQIFITYICNEDCYLAGILELQSAPSAETFVATEDSKGGHPSSSETKEEQNKEDGTFPGLTGTLKFCPLEKAQKLWKENPSEIYPIMNTTTRTRLALIICNTEFQHLSPRVGAQVDLREMKLLLEDLGYTVKVKENLTALEMVKEVKEFAACPEHKTSDSTFLVFMSHGIQEGICGTTYSNEVSDILKVDTIFQMMNTLKCPSLKDKPKVIIIQACRGEKQGVVLLKDSVRDSEEDFLTDAIFEDDGIKKAHIEKDFIAFCSSTPDNVSWRHPVRGSLFIESLIKHMKEYAWSCDLEDIFRKVRFSFEQPEFRLQMPTADRVTLTKRFYLFPGH
binding [2]: binds

B2: Kir6.1, pore-forming subunit of the K-ATP channel (endogenous, mouse BMDMs) (protein, UniProt P97794 1-424)
chain: T1 sequence
binding [3]: binds

B3: mouse Kir6.1 expressed from pcDNA3.1 in HEK293T cells (protein, UniProt P97794 1-424)
chain: T1 sequence
binding [4]: binds

Source: PMC6802643
